For part of these data: The exact form of at least one protein or probe is not confirmed.

Sequences of proteins named here, by UniProt entry; tags and fusion partners are left off. Residues count along the entry.
UniProt P18627, 23-525: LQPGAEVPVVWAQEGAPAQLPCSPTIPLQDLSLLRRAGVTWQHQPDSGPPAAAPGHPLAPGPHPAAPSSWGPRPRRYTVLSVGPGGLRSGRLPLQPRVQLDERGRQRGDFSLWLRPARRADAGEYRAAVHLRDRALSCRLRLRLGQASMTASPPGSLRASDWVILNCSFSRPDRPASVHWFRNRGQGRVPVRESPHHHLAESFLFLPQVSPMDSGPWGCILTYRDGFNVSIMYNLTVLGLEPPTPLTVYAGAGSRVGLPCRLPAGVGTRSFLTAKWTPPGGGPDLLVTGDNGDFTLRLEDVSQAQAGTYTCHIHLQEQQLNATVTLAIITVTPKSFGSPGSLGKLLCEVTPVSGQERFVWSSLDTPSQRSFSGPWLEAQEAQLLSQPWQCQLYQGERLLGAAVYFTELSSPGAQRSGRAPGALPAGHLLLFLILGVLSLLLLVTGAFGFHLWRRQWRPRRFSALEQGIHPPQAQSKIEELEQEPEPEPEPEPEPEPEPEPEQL
UniProt P18627, 23-450: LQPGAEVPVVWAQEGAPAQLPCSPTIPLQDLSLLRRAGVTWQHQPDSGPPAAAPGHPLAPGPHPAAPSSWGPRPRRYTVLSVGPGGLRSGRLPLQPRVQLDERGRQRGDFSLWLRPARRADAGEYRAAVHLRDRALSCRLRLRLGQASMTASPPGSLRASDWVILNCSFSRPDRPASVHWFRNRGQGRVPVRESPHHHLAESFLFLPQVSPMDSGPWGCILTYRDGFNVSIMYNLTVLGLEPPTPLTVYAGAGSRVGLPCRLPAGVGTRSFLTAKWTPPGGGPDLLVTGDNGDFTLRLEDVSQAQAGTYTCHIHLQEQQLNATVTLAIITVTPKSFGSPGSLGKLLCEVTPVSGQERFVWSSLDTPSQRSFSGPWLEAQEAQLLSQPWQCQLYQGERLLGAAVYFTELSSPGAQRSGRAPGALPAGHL

The values that follow come from patent US20210115447, “NUCLEIC ACID APTAMERS TARGETING LYMPHOCYTE ACTIVATION GENE 3 (LAG-3) AND USES THEREOF” (Oneness Biotech Co., Ltd., published 2021).

The target in series [1] is LAG-3 (in LAG-3/MHC-II luciferase reporter bioassay) (UniProt P18627). Put plainly: activity in cells. The following applies: disrupts LAG-3/MHC-II interaction, protein on the cell surface, single-stranded DNA, dose not given here.
Series [2] deals with LAG-3 (lymphocyte activation gene 3) (Homo sapiens) (UniProt P18627). Briefly: pull-down. The following applies: text says minimal to no binding (FIG. 1E), purified recombinant protein, label: 5'-biotin, single-stranded DNA, variant of 5'Bio-B4.

“TCCCTACGGCGCTAACAGGGGGGGGGTTACTGCGCATGTATCTCAGGCCACCGTGCTACAAC [F4]”: the “functional effect of the aptamer” value in series [1] is recorded as “active”.

For the sequence “TCCCTACGGCGCTAACAGAGGGGGGGGTTAGCTGCTTTAACTCATGGCCACCGTGCTACAAC [D9]”, the “functional effect of the aptamer” value in series [1] is reported as “active”.

Broadly, the Kd is a measure of binding affinity in units of concentration. As for “GGGGGTTAGTTCAATACATGCGGGCGGCCACCGTG [5'Bio-B4-SL5]”, the equilibrium dissociation constant (Kd) in series [2] (part of conserved motif deleted) was determined as 91.3 nM.

With “TTAGTTCAATACATGCGGGCGGCCACCGTGCTACA [5'Bio-B4-SL6]”, in series [2] (most of conserved motif deleted), the Kd was found to be 124 nM.

For “TCCCTACGGCGCTAACTGGGGGGGGGTTAGACTTACACTCTTATTCGGCCACCGTGCTACAAC [B8]”, the “functional effect of the aptamer” value in series [1] is listed as “active”.

As to “TCCCTACGGCGCTAACTGGGGGGGGTTAGTTCAATACATGCGGGCGGCCACCGTGCTACAAC [B4]”, the “functional effect of the aptamer” value in series [1] is recorded as “active”.
